According to PMC12574120:

T1: recombinant Mycoplasma bovis chaperone GrpE (Mycoplasma bovis) (UniProt A1KFH3)
T1 sequence: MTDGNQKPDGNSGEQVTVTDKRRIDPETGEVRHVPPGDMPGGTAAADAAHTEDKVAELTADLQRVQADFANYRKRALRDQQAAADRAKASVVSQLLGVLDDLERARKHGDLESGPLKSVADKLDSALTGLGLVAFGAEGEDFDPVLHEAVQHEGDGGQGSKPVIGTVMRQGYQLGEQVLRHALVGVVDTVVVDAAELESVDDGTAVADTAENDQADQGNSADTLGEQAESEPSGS

B1: recombinant Mycoplasma bovis chaperone GrpE (protein, UniProt A1KFH3 1-235)
chain: MTDGNQKPDGNSGEQVTVTDKRRIDPETGEVRHVPPGDMPGGTAAADAAHTEDKVAELTADLQRVQADFANYRKRALRDQQAAADRAKASVVSQLLGVLDDLERARKHGDLESGPLKSVADKLDSALTGLGLVAFGAEGEDFDPVLHEAVQHEGDGGQGSKPVIGTVMRQGYQLGEQVLRHALVGVVDTVVVDAAELESVDDGTAVADTAENDQADQGNSADTLGEQAESEPSGS

Experiments:
[1] = biological target: T1, recombinant Mycoplasma bovis chaperone GrpE (Mycoplasma bovis); test: far-Western, overlay or dot blot; twofold-diluted rGrpE spotted on nitrocellulose, blocked, incubated overnight at 4 °C with 10 μg of the host protein in solution; bound host protein detected with its antibody (1:500) and HRP secondary antibody, ECL; both purified
vitronectin = test: ELISA; 100 ng of ECM protein coated on 96-well plates; rGrpE added at 800 ng to 3.125 ng; OD at 450 nm; both purified

Molecule | binding [1] | binding (vitronectin)
plasminogen | binds | –
tissue-type plasminogen activator (enzyme) | binds | –
vitronectin | binds | –
B1 | – | binds

No constants are given. Whether binding was seen depends on the method and setting. Binding can be weak; no strength is given. Sequences can lack the tags named with a protein.
